# Source: PubChem BioAssay AID504594 (Broad Institute, 2011)
# “And” between values parts separate entries of the source, which are not always exact repeats. Identical values can stand only once. In all, about 2,000 compounds went through this assay and fewer than 10 were called active.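 How the source made its calls: active means growth inhibition of at least 75% in every replicate, which also brings the mean inhibition to 75% or more; inconclusive means mean inhibition 75% or more but some replicate under 75%; inactive means the rest.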 Some of the results follow.
# Assay: reduced viability of yeast carrying PfHsp90 – S. cerevisiae, BacTiter-Glo luminescence, antimalarial PfHsp90 inhibitor project, primary screen (AID 504594);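 further: 0% = DMSO neutral control wells and 100% = 20 µM radicicol control wells; higher value means stronger growth inhibition because the sign is flipped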
# Details: S. cerevisiae expressing PfHsp90, BacTiter-Glo growth, 48 h; at 9.4 µM; stronger effect = higher value
row,SMILES,growth inhibition
1,O=C(O)c1ccccc1C(=O)OCCCCOC(=O)c1ccccc1C(=O)O,inactive: -3.9%
2,CC(=O)OCC#CCSc1nc2ccccc2n1C,inactive: -21.1%
3,CCCC(=O)O[C@]1(C(=O)COC(C)=O)CC[C@H]2[C@@H]3C[C@H](F)C4=CC(=O)C=C[C@]4(C)[C@@]3(F)[C@@H](O)C[C@@]21C,inactive: 6.83%
4,Cn1nnnc1SCC1=C(C(=O)O)N2C(=O)[C@@H](NC(=O)[C@H](O)c3ccccc3)[C@H]2SC1,inactive: -10.3%
5,O=C(NNC(=O)c1cccs1)c1ccco1,inactive: 5.33%
6,OCCN1CCN(CCCN2c3ccccc3Sc3ccc(Cl)cc32)CC1,inactive: 6.93%
7,COC(=O)C1=C(C)N(C)C(=S)NC1c1ccc(Cl)cc1 (centres undefined),inactive: -13.4%
8,CCn1c(O)c(/C=C2\C=Nc3ccccc32)sc1=O,inactive: 3.64%
9,Nc1ccc(S(=O)(=O)c2ccc(N)cc2)cc1,inactive: 0.466%
10,O=C(c1cccnc1)N1N=C(C2CC2)CC1(O)C(F)(F)F (centres undefined),inactive: -6.11%
11,COC(=O)c1ccc(C(=O)OC)c(NC(=O)C(C)C)c1,inactive: 3.81%
12,COCc1cc(=O)[nH]c(Nc2nc3ccccc3o2)n1,inactive: -0.942%
13,CC1CCCc2sc3ncn(N)c(=N)c3c21 (centres undefined),inactive: 6.48%
14,O=c1oc2c(CN3CCCCC3)c(O)ccc2c2c1CCCCC2,inactive: 6.09%
15,CC(=O)[C@@H]1[C@@H](C(=O)c2ccc(C)cc2)[C@]2(C(=O)Nc3ccccc32)[C@H]2C=Cc3cc(F)ccc3N12,inactive: 12.2%
16,COc1ccc2c(c1O)Cc1ccccc1C2=O,inactive: -1.56%
17,CC(C)Cc1cc(C(=O)N2CCC(N3CCC(C(=O)N4CCCC4)CC3)CC2)n[nH]1,inactive: 8.38%
18,Nc1nc(SCc2ccc([N+](=O)[O-])cc2)c2ncn(C3OC(CO)C(O)C3O)c2n1 (centres undefined),inactive: -10.3%
19,CCOc1ccc2nc(NC(=O)NC3CCCCC3)sc2c1,inactive: 16.2%
20,O=C(N1CCCCC1)C1(c2ccccc2)CCOCC1,inactive: 2.93%
21,Cc1ccc(CN2CCN(Cc3cn[nH]c3C3CCCCC3)CC2CCO)cc1 (centres undefined),inactive: -25.7%
22,CCCC(=O)Nc1ncnc2c1ncn2[C@@H]1O[C@@H]2COP(=O)(O)O[C@H]2[C@H]1OC(=O)CCC,inactive: -16.2%
23,CCc1cccc(OC2OC(CO)C(O)C(O)C2NC(C)=O)c1 (centres undefined),inactive: -0.333%
24,CCCc1c(OCCCCc2nn[nH]n2)ccc(C(C)=O)c1O,inactive: 6.27%

row,SMILES,growth inhibition
1,C=CCc1cccc2cc(C(=O)Nc3ccc(CC(=O)O)cc3)c(=O)oc12,inactive: -7.68%
2,COc1cc(CNc2nnnn2C)ccc1OCc1ccc(F)cc1Cl,inactive: 10.4%
3,CCc1cc2c(C)cc(=O)oc2cc1OC(=O)C1CCCN1C(=O)OC(C)(C)C (centres undefined),inactive: 5.63%
4,O=C(COc1ccc2c(-c3ccccc3)cc(=O)oc2c1)NCc1cccs1,inactive: 6.98%
5,O=c1cc(-c2ccccc2)oc2cc(OCc3ccccc3)cc(O)c12,inactive: 2.87%
6,C/C(=N\N=C1\NC(=O)C(CC(=O)Nc2ccc(Cl)cc2)S1)c1ccco1 (centres undefined),inactive: 28%
7,CC(C)OC(=O)CC12CN3CN(C1)CC(CC(=O)OC(C)C)(C3)C2=O,inactive: 0.344%
8,CC1(C)CC(C(CC(=O)O)c2ccccc2)CCO1 (centres undefined),inactive: -0.107%
9,Cc1ccc(P(=O)(CSC(=N)N)c2ccc(C)cc2)cc1,inactive: -1.66%
10,O=C(c1cc2cc(Br)ccc2o1)N1CCCC1,inactive: -17.3%
11,CC(=O)[C@H]1CC[C@H]2[C@@H]3CCC4=CC(=O)CC[C@]4(C)[C@H]3[C@H](O)C[C@]12C,inactive: 3.27%
12,Cn1cc(/C=C/C(=O)c2ccccc2)c2ccccc21,inactive: -12.4%
13,COc1ccc(-c2c3c(=O)n(C)c(=O)n(C)c3cn2C2CCCCC2)cc1,inactive: 0.551%
14,COc1cccc2cc(-c3ccccc3)c(=O)oc12,inactive: -6.93%
15,COc1cc2nc(N3CCN(C(=O)C4CCCO4)CC3)nc(N)c2cc1OC (centres undefined),inactive: 3.89% and inactive: -4.06%
16,C[C@H]1C[C@H]2[C@@H]3CCC4=CC(=O)C=C[C@]4(C)[C@@]3(Cl)[C@@H](O)C[C@]2(C)[C@@]1(O)C(=O)CO,inactive: 12%
17,NC(N)=N/N=C/c1c(Cl)cccc1Cl,inactive: 2.34%
18,NS(=O)(=O)c1cc2c(cc1Cl)NCNS2(=O)=O,inactive: 9.9%
19,CC(C)Cn1c(=S)[nH]c2cc(C(=O)O)ccc2c1=O,inactive: 11.9%
20,O=c1[nH]c(=O)n([C@H]2C[C@H](O)[C@@H](CO)O2)cc1F,inactive: 4.05%
21,O=C(N1CCCC1)C12CC3CC(C1)CC(C(=O)N1CCCC1)(C3)C2,inactive: -11.5%
22,COC1=CC(=O)CC(C)C12Oc1c(Cl)c(OC)cc(OC)c1C2=O (centres undefined),inactive: -0.902%
23,CS(=O)(=O)Nc1cccc(C(=O)CC2(O)C(=O)Nc3ccc(Br)cc32)c1 (centres undefined),inactive: -27.8%
24,O=C(/C=C/c1c[nH]c2ccccc12)c1cccc2ccccc12,inactive: 5.41%

row,SMILES,growth inhibition
1,CC(=O)Oc1cc(C(C)C)c(OCCN(C)C)cc1C,inactive: 2.3%
2,CCc1cc(=O)oc2cc(OCc3nn[nH]n3)ccc12,inactive: -13.7%
3,CSc1ccc(/C=N/N2CCN(Cc3ccc(C)cc3C)CC2)cc1,inactive: 0.745%
4,C[C@H](NC(=O)Nc1ccccc1F)C(=O)O,inactive: -6.88%
5,COc1ccc2cc[nH]c2c1,inactive: -4.91%
6,C[N+]12CCC(CC1)C(OC(=O)C(O)(c1ccccc1)c1ccccc1)C2 (centres undefined),inactive: 4.17%
7,CC(=O)N1CCn2c3c(c4cc(C)ccc42)CCCC31 (centres undefined),inactive: -11.1%
8,COc1ccc2c(c1OC)C(C1c3c(cc4c(c3OC)OCO4)CCN1C)OC2=O (centres undefined),inactive: 1.28%
9,COC(=O)c1[nH]c2ccc(F)cc2c1NC(=O)C1=COCCO1,inactive: -3.7%
10,O=C(NCCO)c1ccc2[nH]c3ccccc3c2c1,inactive: -6.45%
11,COc1ccc(CN2CCCC(C(=O)c3ccc(Cl)cc3)C2)cc1Cn1cccn1 (centres undefined),inactive: 0.31%
12,CCOc1ccc(CC2c3cc(OCC)c(OCC)cc3CCN2C(=O)CN2CCN(C)CC2)cc1OCC (centres undefined),inactive: 0.543%
13,COc1cc(C)nc(-n2nc(C)cc2OC)n1,inactive: 8.93%
14,CS(=O)(=O)Nc1ccc([N+](=O)[O-])cc1Oc1ccccc1,inactive: -3.05%
15,CC(=O)[C@@]1(O)CC[C@H]2[C@@H]3CCC4=CC(=O)CC[C@]4(C)[C@H]3[C@@H](O)C[C@@]21C,inactive: -3.14%
16,Cc1coc2cc3oc(=O)c(CCC(=O)O)c(C)c3cc12,inactive: 1.18%
17,CNCCC=C1c2ccccc2CCc2ccccc21,inactive: -5.7%
18,CC[C@]1(O)CC2CN(CCc3c([nH]c4ccccc34)[C@@](C(=O)OC)(c3cc4c(cc3OC)N(C=O)[C@H]3[C@@](O)(C(=O)OC)[C@H](OC(C)=O)[C@]5(CC)C=CCN6CC[C@]43[C@@H]65)C2)C1 (some centres undefined),inactive: -4.95%
19,O=C1C(Cc2ccccc2)NC(=S)N1c1ccccc1 (centres undefined),inactive: -12.5%
20,O=C(c1ccccc1F)c1cc2c(cc1[N+](=O)[O-])OCCO2,inactive: 0.827%
21,Cc1ccc(S(=O)(=O)NC(=O)Nc2cc(C)ccc2F)cc1,inactive: 5.31%
22,O=C1OC(c2ccccc2)=C/C1=C/c1cccs1,inactive: -2.08%
23,Cc1ccc(/C(=C\CN2CCCC2)c2ccccn2)cc1,inactive: -5.69%
24,CCOc1ccc(NC2OC(C)C(O)C(O)C2O)c([N+](=O)[O-])c1 (centres undefined),inactive: -13.5%

row,SMILES,growth inhibition
1,CC1(C)CC(O)(CNCc2ccc3c(c2)OCO3)CCO1 (centres undefined),inactive: 3.89%
2,O=C(O)CCCN1C(=O)NC2NC(=O)NC21 (centres undefined),inactive: -0.193%
3,COc1ccc2c3c([nH]c2c1)C1(NCC3)C(=O)Nc2ccccc21 (centres undefined),inactive: -3.79%
4,COc1ccccc1/C=C/CN1CCN(Cc2ccc(F)cc2)C(CCO)C1 (centres undefined),inactive: 0.857%
5,O=C(N/N=C/c1ccc([N+](=O)[O-])o1)c1ccc(O)cc1,inactive: -12.9%
6,NC(=O)c1ncn([C@@H]2O[C@H](CO)[C@@H](O)[C@H]2O)c1O,inactive: 2.24%
7,COc1ccccc1-c1ccc(/C=C2/C=C(CC(C)C)OC2=O)o1,inactive: 1.71%
8,CCc1cc(C(N)=S)ccn1,inactive: -5.43%
9,Cc1ccc2c(c1)c(=O)c1c3n2CCN(C(=O)CCl)C3CC1 (centres undefined),inactive: -5.71%
10,COc1cc(C(=O)OCCCN(C)C)cc(OC)c1OC,inactive: -5.1%
11,O=C(OCC1CCCN2CCCCC12)c1ccc2c(c1)OCO2 (centres undefined),inactive: -0.24%
12,CC1(C)C(=O)OC(/C=C\c2ccccc2)C(C)(C)C1=O (centres undefined),inactive: -1.11%
13,O=C(O)CCn1c(=S)n(CCC(=O)O)c2ccccc21,inactive: 7.47%
14,CC1(CC(=O)Nc2ccccc2)NC(=S)N(c2ccccc2)N1 (centres undefined),inactive: -3.04%
15,CCOC(=O)Nc1ccc2c(c1)N(C(=O)CCN1CCOCC1)c1ccccc1S2,inactive: -3.19%
16,CCOC(=O)c1cnc2ccccc2c1NCCO,inactive: -9.81%
17,CN=C(NC#N)NCCSCc1nc[nH]c1C,inactive: 9.43%
18,CCC(C)NCCOCCOc1ccc(Cl)c2ccccc12 (centres undefined),inactive: 0.98%
19,COc1ccc(-c2csc(-c3cccnc3)n2)cc1C,inactive: -2.65%
20,COc1ccc(C2(CCN=Cc3ccc(N(C)C)cc3)CCOC(C)(C)C2)cc1 (centres undefined),inactive: -0.00353%
21,COc1ccc(Br)cc1C(=O)Nc1ccc(C(=O)O)cc1,inactive: -27.9%
22,COc1cc([C@@H]2c3cc4c(cc3[C@H](O)[C@H]3COC(=O)[C@H]23)OCO4)cc(OC)c1OC,inactive: 1.93%
